Taken from: PubChem BioAssay AID652272 (Drosophila RNAi Screening Center, 2013)
Purpose: 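Finding fly genes that regulate Hedgehog signal transduction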 (primary screen). System: Drosophila clone 8 (Cl8) cells. Reagent: long dsRNA against Drosophila genes. Measurement: 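Firefly light from a Hedgehog-responsive ptc promoter reporter and Renilla reference light, both read on a plate reader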. Direction: firefly Hh reporter signal: higher = more ptc reporter light; Renilla reference signal: higher = more Renilla control light. Call rule: 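Called a hit if the two-replicate mean z-score lies below -2 or above +3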. Meaning of the calls: active = hit: reporter lowered or raised; inactive = not a hit.
In all, the deposit lists about 21,000 reagents; shown is an unselected part of those with a known target gene and a result. Over the whole deposit, 503 (2.4%) were called active. 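Raw plate light values, not normalised; calls rest on replicate z-scores that were not deposited; hits include reporter decreases as well as increases.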 A number with no mark means an inactive call. Names joined by + are all predicted targets of the reagent. Not stated in the record: the amount of reagent, the time to read-out.

no.	Target gene	DRSC id	firefly Hh reporter signal, replicate 1	firefly Hh reporter signal, replicate 2	firefly Hh reporter signal, replicate 3	Renilla reference signal, replicate 1	Renilla reference signal, replicate 2
1	CG15498	DRSC15040	7.69e5	1.56e5		41979	3031
2	CG43103	DRSC05643	1.33e5	2.67e5		4045	12279
3	Ugt302C1	DRSC15353	92344	92440		3332	3044
4	CG7255	DRSC10790	84039	62940		3440	2848
5	Or49a	DRSC07493	70188	58683		1619	3865
6	CG3860	DRSC04425	97868	77348		3767	2811
7	CG43737	DRSC19609	89777	2.28e5		3235	8140
8	CG43737	DRSC19610	84944	2.67e5		3239	9780
9	swm	DRSC02012	1.53e5	7.37e5	1.16e5	6900	41130
10	CG17111	DRSC15174	5.54e5	1.02e5		25985	2786
11	Pp4-19C	DRSC20559	51880	1.91e5		1098	6946
12	Pp4-19C	DRSC21251	65271	1.42e5		2517	4896
13	CG14767	DRSC06500	80762	52803		4077	2437
14	alph	DRSC15398	1.15e5	82052		2593	2498
15	CG15043	DRSC19619	1.11e5	2.57e5		3523	11282
16	Usp7	DRSC18909	5.28e5	2.18e5		26614	5074
17	Usp7	DRSC19604	1.04e5	3.59e5		3482	14224
18	CAH16	DRSC15371	72595	76449		2633	1633
19	CG9917	DRSC20218	92131	78960		1909	1153
20	shop	DRSC20030	1.56e5	1.21e5		3554	3088
21	GLS	DRSC07261	93483	91315		3885	3479
22	CG12310	DRSC09878	1.06e5			4354	2804
23	CG12535	DRSC17838	76497	2.27e5		2041	9381
24	CG8675	DRSC20117	1.00e5	1.02e5		2301	2720
25	CG42507 + Trl	DRSC09325	2.37e5			5562	
26	CG42507 + Trl	DRSC11308	24896	16349		1257	725
27	CG12426	DRSC14516	1.11e5	94756		4392	2992
28	CG4950	DRSC10463	1.22e5			2545	3827
29	Dab	DRSC11140	6.26e5	1.67e5	1.08e5	1634	5024
30	myo	DRSC17174	1.65e5	87338		3697	3237
31	CG8249	DRSC07125	54501	57048		631	3505
32	CG14420	DRSC17917	62138	1.27e5		3012	5504
33	CG31784	DRSC01574	1.17e5	2.69e5		3296	12243
34	CG7829	DRSC16322	84326	1.13e5		2437	4792
35	CG7227	DRSC03032	1.27e5	73585		4378	3440
36	mRpL37	DRSC16062	64336	97725		1330	2528
37	Or24a	DRSC00768	69706	54128		1408	5600
38	coil	DRSC07242	65552	48921		2713	2016
39	Tob	DRSC20294	72136	69059		2187	1576
